Source: PubChem BioAssay AID1224828 (NIAID, 2016)
Purpose: 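Knock-downs that increase or decrease LPS-induced p65 nuclear translocation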 (primary screen). Cell system: mouse RAW264.7 G9 macrophage reporter cells (GFP-p65, Tnf promoter-mCherry). Reagents: siRNA pool against mouse genes, 100 nM. Duration: 2 days siRNA transfection, then 40 min LPS before fixation. Conditions: LPS (Salmonella minnesota R595) at 10 ng/ml. Measurement: 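Microscopy ratio of nuclear to perinuclear-ring GFP-p65 signal, scaled to the plate median; gene score is the average of two replicate robust z-scores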. Scale: p65 translocation robust z-score: higher = more nuclear NF-kappaB p65 after LPS than the plate median; nuclear/cytoplasmic p65 ratio: higher = more nuclear NF-kappaB p65. Hit rule: 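Called active when z exceeds 3.3 or falls under -1.56 (median of Tlr4 controls), giving activity score of at least 50; no calls for control wells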. Calls: active = hit (p65 shift raised or lowered); inactive = no clear change.
Here is an unselected part of about 17,000 deposited reagents. 762 of them (4.5%) were called active. 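Active calls include both raised and lowered p65 entry, mostly lowered; wells with fewer than 50 cells lack a z-score.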 Raw values are not corrected between plates.

target,p65 translocation robust z-score,"nuclear/cytoplasmic p65 ratio, rep 1","nuclear/cytoplasmic p65 ratio, rep 2",low cell count flag,outcome
Ugt2b1,-0.28,1.55,1.59,enough cells to score,inactive
Fgd3,-0.95,1.33,1.45,enough cells to score,inactive
Kcnip4,1.85,1.81,1.68,enough cells to score,inactive
Ldlrap1,1.27,1.77,1.84,enough cells to score,inactive
Prkaa1,-1.17,1.53,1.22,enough cells to score,inactive
Osmr,0.03,1.47,1.4,enough cells to score,inactive
Pard6b,-0.75,1.36,1.16,enough cells to score,inactive
Ms4a4c,0.68,1.86,1.72,enough cells to score,inactive
Ggt7,-0.15,1.55,1.37,enough cells to score,inactive
Rab11fip1,-0.58,1.53,1.52,enough cells to score,inactive
Otub1,-0.26,1.47,1.32,enough cells to score,inactive
Pam16,1.11,1.86,1.73,enough cells to score,inactive
Atp10d,1.71,1.66,1.95,enough cells to score,inactive
Rfx5,1.3,1.72,1.68,enough cells to score,inactive
Mbnl2,-1.82,1.43,1.25,enough cells to score,active
Sugp1,,1.47,1.27,fewer than 50 cells per well; well left out of scoring,inactive
Selplg,0.34,1.53,1.67,enough cells to score,inactive
Kif13b,0.9,1.84,1.48,enough cells to score,inactive
Vstm2a,-1.54,1.38,1.55,enough cells to score,inactive
Ik,-0.79,1.34,1.27,enough cells to score,inactive
Tmem201,-0.55,1.51,1.5,enough cells to score,inactive
Gprc5a,0.37,1.61,1.53,enough cells to score,inactive
Or13c7c,-1.52,1.4,1.21,enough cells to score,inactive
Cacna1b,-0.16,1.61,1.57,enough cells to score,inactive

3 entries already listed, sorted by “p65 translocation robust z-score”, ascending:
target,p65 translocation robust z-score,"nuclear/cytoplasmic p65 ratio, rep 1","nuclear/cytoplasmic p65 ratio, rep 2",low cell count flag,outcome
Mbnl2,-1.82,1.43,1.25,enough cells to score,active
Rfx5,1.3,1.72,1.68,enough cells to score,inactive
Atp10d,1.71,1.66,1.95,enough cells to score,inactive
